One compound from PubChem BioAssay AID850 (SRMLSC, 2007) can be followed below.

The other results are listed elsewhere or left out.

The nature of the assay: concentration-response yeast growth inhibition under permissive conditions, counter-assay for yeast lifespan-shortening chemical project (AID 850).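 Further: growth read as optical density after one day of incubation.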 The conditions noted are these: Saccharomyces cerevisiae growth inhibition, permissive control; measured here: maximum growth inhibition; at 3.125 µM; stronger effect = higher value.

On to `O=[N+]([O-])c1cc([N+](=O)[O-])c(-c2ccn[nH]2)s1`, for which the inhibition – broadly, how much of the control response was suppressed – was 39.5%.
